To fix the notation:
B1: EGF-containing fibulin-like extracellular matrix protein 1 (protein, UniProt Q12805 18-493, looked up)
EGF-containing fibulin-like …: QDTEETITYTQCTDGYEWDPVRQQCKDIDECDIVPDACKGGMKCVNHYGGYLCLPKTAQIIVNNEQPQQETQPAEGTSGATTGVVAASSMATSGVLPGGGFVASAAAVAGPEMQTGRNNFVIRRNPADPQRIPSNPSHRIQCAAGYEQSEHNVCQDIDECTAGTHNCRADQVCINLRGSFACQCPPGYQKRGEQCVDIDECTIPPYCHQRCVNTPGSFYCQCSPGFQLAANNYTCVDINECDASNQCAQQCYNILGSFICQCNQGYELSSDRLNCEDIDECRTSSYLCQYQCVNEPGKFSCMCPQGYQVVRSRTCQDINECETTNECREDEMCWNYHGGFRCYPRNPCQDPYILTPENRCVCPVSNAMCRELPQSIVYKYMSIRSDRSVPSDIFQIQATTIYANTINTFRIKSGNENGEFYLRQTSPVSAMLVLVKSLSGPREHIVDLEMLTVSSIGTFRTSSVLRLTIIVGPFSF
B2: Lactotransferrin (protein, UniProt P02788 20-710, looked up)
Lactotransferrin: GRRRSVQWCAVSQPEATKCFQWQRNMRKVRGPPVSCIKRDSPIQCIQAIAENRADAVTLDGGFIYEAGLAPYKLRPVAAEVYGTERQPRTHYYAVAVVKKGGSFQLNELQGLKSCHTGLRRTAGWNVPIGTLRPFLNWTGPPEPIEAAVARFFSASCVPGADKGQFPNLCRLCAGTGENKCAFSSQEPYFSYSGAFKCLRDGAGDVAFIRESTVFEDLSDEAERDEYELLCPDNTRKPVDKFKDCHLARVPSHAVVARSVNGKEDAIWNLLRQAQEKFGKDKSPKFQLFGSPSGQKDLLFKDSAIGFSRVPPRIDSGLYLGSGYFTAIQNLRKSEEEVAARRARVVWCAVGEQELRKCNQWSGLSEGSVTCSSASTTEDCIALVLKGEADAMSLDGGYVYTAGKCGLVPVLAENYKSQQSSDPDPNCVDRPVEGYLAVAVVRRSDTSLTWNSVKGKKSCHTAVDRTAGWNIPMGLLFNQTGSCKFDEYFSQSCAPGSDPRSNLCALCIGDEQGENKCVPNSNERYYGYTGAFRCLAENAGDVAFVKDVTVLQNTDGNNNEAWAKDLKLADFALLCLDGKRKPVTEARSCHLAMAPNHAVVSRMDKVERLKQVLLHQQAKFGRNGSDCPDKFCLFQSETKNLLFNDNTECLARLHGKTTYEKYLGPQYVAGITNLKKCSTSPLLEACEFLRK
B3: Lithostathine-1-alpha (protein, UniProt P05451 23-166, looked up)
Lithostathine-1-alpha: QEAQTELPQARISCPEGTNAYRSYCYYFNEDRETWVDADLYCQNMNSGNLVSVLTQAEGAFVASLIKESGTDDFNVWIGLHDPKKNRRWHWSSGSLVSYKSWGIGAPSSVNPGYCVSLTSSTGFQKWKDVPCEDKFSFVCKFKN
B4: Acyl-CoA-binding protein (protein, UniProt P07108 2-87, looked up)
Acyl-CoA-binding protein: SQAEFEKAAEEVRHLKTKPSDEEMLFIYGHYKQATVGDINTERPGMLDFTGKAKWDAWNELKGTSKEDAMKAYINKVEELKKKYGI
B5: Lymphatic vessel endothelial hyaluronic acid receptor 1 (protein, UniProt Q9Y5Y7 20-322, looked up)
Lymphatic vessel endothelial …: LVQGSLRAEELSIQVSCRIMGITLVSKKANQQLNFTEAKEACRLLGLSLAGKDQVETALKASFETCSYGWVGDGFVVISRISPNPKCGKNGVGVLIWKVPVSRQFAAYCYNSSDTWTNSCIPEIITTKDPIFNTQTATQTTEFIVSDSTYSVASPYSTIPAPTTTPPAPASTSIPRRKKLICVTEVFMETSTMSTETEPFVENKAAFKNEAAGFGGVPTALLVLALLFFGAAAGLGFCYVKRYVKAFPFTNKNQQKEMIETKVVKEEKANDSNPNEESKKTDKNPEESKSPSKTTVRCLEAEV
B6: Secretogranin-1 (protein, UniProt P05060 21-677, looked up)
Secretogranin-1: MPVDNRNHNEGMVTRCIIEVLSNALSKSSAPPITPECRQVLKTSRKDVKDKETTENENTKFEVRLLRDPADASEAHESSSRGEAGAPGEEDIQGPTKADTEKWAEGGGHSRERADEPQWSLYPSDSQVSEEVKTRHSEKSQREDEEEEEGENYQKGERGEDSSEEKHLEEPGETQNAFLNERKQASAIKKEELVARSETHAAGHSQEKTHSREKSSQESGEETGSQENHPQESKGQPRSQEESEEGEEDATSEVDKRRTRPRHHHGRSRPDRSSQGGSLPSEEKGHPQEESEESNVSMASLGEKRDHHSTHYRASEEEPEYGEEIKGYPGVQAPEDLEWERYRGRGSEEYRAPRPQSEESWDEEDKRNYPSLELDKMAHGYGEESEEERGLEPGKGRHHRGRGGEPRAYFMSDTREEKRFLGEGHHRVQENQMDKARRHPQGAWKELDRNYLNYGEEGAPGKWQQQGDLQDTKENREEARFQDKQYSSHHTAEKRKRLGELFNPYYDPLQWKSSHFERRDNMNDNFLEGEEENELTLNEKNFFPEYNYDWWEKKPFSEDVNWGYEKRNLARVPKLDLKRQYDRVAQLDQLLHYRKKSAEFPDFYDSEEPVSTHQEAENEKDRADQTVLTEDEKKELENLAAMDLELQKIAEKFSQRG
B7: Peptidase inhibitor 16 (protein, UniProt Q6UXB8 28-463, looked up)
Peptidase inhibitor 16: LTDEEKRLMVELHNLYRAQVSPTASDMLHMRWDEELAAFAKAYARQCVWGHNKERGRRGENLFAITDEGMDVPLAMEEWHHEREHYNLSAATCSPGQMCGHYTQVVWAKTERIGCGSHFCEKLQGVEETNIELLVCNYEPPGNVKGKRPYQEGTPCSQCPSGYHCKNSLCEPIGSPEDAQDLPYLVTEAPSFRATEASDSRKMGTPSSLATGIPAFLVTEVSGSLATKALPAVETQAPTSLATKDPPSMATEAPPCVTTEVPSILAAHSLPSLDEEPVTFPKSTHVPIPKSADKVTDKTKVPSRSPENSLDPKMSLTGARELLPHAQEEAEAEAELPPSSEVLASVFPAQDKPGELQATLDHTGHTSSKSLPNFPNTSATANATGGRALALQSSLPGAEGPDKPSVVSGLNSGPGHVWGPLLGLLLLPPLVLAGIF
B8: WNT1-inducible-signaling pathway protein 2 (protein, UniProt O76076 24-250, looked up)
CCN family member 5: QLCPTPCTCPWPPPRCPLGVPLVLDGCGCCRVCARRLGEPCDQLHVCDASQGLVCQPGAGPGGRGALCLLAEDDSSCEVNGRLYREGETFQPHCSIRCRCEDGGFTCVPLCSEDVRLPSWDCPHPRRVEVLGKCCPEWVCGQGGGLGTQPLPAQGPQFSGLVSSLPPGVPCPEWSTAWGPCSTTCGLGMATRVSNQNRFCRLETQRRLCLSRPCPPSRGRSPQNSAF
B9: Complement decay-accelerating factor (protein, UniProt P08174 35-353, looked up)
Complement decay-accelerating …: DCGLPPDVPNAQPALEGRTSFPEDTVITYKCEESFVKIPGEKDSVICLKGSQWSDIEEFCNRSCEVPTRLNSASLKQPYITQNYFPVGTVVEYECRPGYRREPSLSPKLTCLQNLKWSTAVEFCKKKSCPNPGEIRNGQIDVPGGILFGATISFSCNTGYKLFGSTSSFCLISGSSVQWSDPLPECREIYCPAPPQIDNGIIQGERDHYGYRQSVTYACNKGFTMIGEHSIYCTVNNDEGEWSGPPPECRGKSLTSKVPPTVQKPTTVNVPTTEVSPTSQKTTTKTTTPNAQATRSTPVSRTTKHFHETTPNKGSGTTS
B10: Endonuclease domain-containing 1 protein (protein, UniProt O94919 22-500, looked up)
Endonuclease …: RLVGEEEAGFGECDKFFYAGTPPAGLAADSHVKICQRAEGAERFATLYSTRDRIPVYSAFRAPRPAPGGAEQRWLVEPQIDDPNSNLEEAINEAEAITSVNSLGSKQALNTDYLDSDYQRGQLYPFSLSSDVQVATFTLTNSAPMTQSFQERWYVNLHSLMDRALTPQCGSGEDLYILTGTVPSDYRVKDKVAVPEFVWLAACCAVPGGGWAMGFVKHTRDSDIIEDVMVKDLQKLLPFNPQLFQNNCGETEQDTEKMKKILEVVNQIQDEERMVQSQKSSSPLSSTRSKRSTLLPPEASEGSSSFLGKLMGFIATPFIKLFQLIYYLVVAILKNIVYFLWCVTKQVINGIESCLYRLGSATISYFMAIGEELVSIPWKVLKVVAKVIRALLRILCCLLKAICRVLSIPVRVLVDVATFPVYTMGAIPIVCKDIALGLGGTVSLLFDTAFGTLGGLFQVVFSVCKRIGYKVTFDNSGEL
B11: Complement factor I (protein, UniProt P05156 19-583, looked up)
Complement factor I: KVTYTSQEDLVEKKCLAKKYTHLSCDKVFCQPWQRCIEGTCVCKLPYQCPKNGTAVCATNRRSFPTYCQQKSLECLHPGTKFLNNGTCTAEGKFSVSLKHGNTDSEGIVEVKLVDQDKTMFICKSSWSMREANVACLDLGFQQGADTQRRFKLSDLSINSTECLHVHCRGLETSLAECTFTKRRTMGYQDFADVVCYTQKADSPMDDFFQCVNGKYISQMKACDGINDCGDQSDELCCKACQGKGFHCKSGVCIPSQYQCNGEVDCITGEDEVGCAGFASVTQEETEILTADMDAERRRIKSLLPKLSCGVKNRMHIRRKRIVGGKRAQLGDLPWQVAIKDASGITCGGIYIGGCWILTAAHCLRASKTHRYQIWTTVVDWIHPDLKRIVIEYVDRIIFHENYNAGTYQNDIALIEMKKDGNKKDCELPRSIPACVPWSPYLFQPNDTCIVSGWGREKDNERVFSLQWGEVKLISNCSKFYGNRFYEKEMECAGTYDGSIDACKGDSGGPLVCMDANNVTYVWGVVSWGENCGKPEFPGVYTKVANYFDWISYHVGRPFISQYNV
B12: Tripeptidyl-peptidase 1 (protein, UniProt O14773 196-563, looked up)
Tripeptidyl-peptidase 1: LHLGVTPSVIRKRYNLTSQDVGSGTSNNSQACAQFLEQYFHDSDLAQFMRLFGGNFAHQASVARVVGQQGRGRAGIEASLDVQYLMSAGANISTWVYSSPGRHEGQEPFLQWLMLLSNESALPHVHTVSYGDDEDSLSSAYIQRVNTELMKAAARGLTLLFASGDSGAGCWSVSGRHQFRPTFPASSPYVTTVGGTSFQEPFLITNEIVDYISGGGFSNVFPRPSYQEEAVTKFLSSSPHLPPSSYFNASGRAYPDVAALSDGYWVVSNRVPIPWVSGTSASTPVFGGILSLINEHRILSGRPPLGFLNPRLYQQHGAGLFDVTRGCHESCLDEEVEGQGFCSGPGWDPVTGWGTPNFPALLKTLLNP

A short description of one data set: RRT study: LC-MS/MS urinary proteomics, AKI after cardiac surgery, RRT vs No RRT. Set-up: species or system human. To be noted: direction of urinary abundance, patients who did vs did not require RRT/dialysis.
With B1, the “Up or Down” value is given as “Up”.

With B2, the “Up or Down” value is given as “Up”.

B3: the “Up or Down” value is recorded as “Up”.

Consider B4, for which the “Up or Down” value is listed as “Up”.

As for B5, the “Up or Down” value is given as “Up”.

B6: the “Up or Down” value is “Up”.

Turning to B7, the “Up or Down” value is listed as “Up”.

In the case of B8, the “Up or Down” value is reported as “Up”.

On to B9, for which the “Up or Down” value is “Up”.

Consider B10, for which the “Up or Down” value is reported as “Up”.

Take B11: the “Up or Down” value is “Up”.

Consider B12, for which the “Up or Down” value is “Up”.

Staying with this data set, now noted: patients who did vs did not require RRT/dialysis; read with the Up or Down column.
For B1, the “Mean Fold Change” value turned out to be 1.932.

As to B2, the “Mean Fold Change” value is listed as 1.538.

Take B3: the “Mean Fold Change” value was 1.1406.

For B4, the “Mean Fold Change” value came out at 17.89.

For the molecule B5, the “Mean Fold Change” value came to 1.137.

As for B6, the “Mean Fold Change” value was found to be 1.244.

Consider B7, for which the “Mean Fold Change” value is 2.388.

With B8, the “Mean Fold Change” value is listed as 1.411.

On to B9, for which the “Mean Fold Change” value is 1.188.

Regarding B10, the “Mean Fold Change” value came out at 1.924.

Turning to B11, the “Mean Fold Change” value is on record as 1.705.

For the molecule B12, the “Mean Fold Change” value amounted to 1.239.

Values taken from patent publication US20140038203A1, “METHODS FOR DETECTING OR PREDICTING KIDNEY DISEASE” (MUSC FOUNDATION FOR RESEARCH DEVELOPMENT, priority 2012, published 2014).
